From PubChem BioAssay AID540256 (National Center for Advancing Translational Sciences (NCATS), 2011)
The campaign covered roughly 300,000 compounds. About 3,700 (1.2%) were called active. Inconclusive results, whose numbers are uncertain, are shown with a selection of clear calls. The call rests on the fitted dose curve; tested in HEK293 cells. Potencies of inconclusive entries are doubtful fits and often do not repeat.

test: qHTS for Inhibitors of binding or entry into cells for Lassa Virus; settings: Lassa virus pseudotype entry inhibition, cell reporter; activity change, negative = inhibition: at 37.9 µM (top of the series) unless noted; further: nearly all actives have a fitted effect of over 50% in size
On the % scale 0 is the no-effect control and ±100 the full control effect; potency means the concentration at half of the fitted maximal effect.

Row | Compound | Potency | activity change, negative = inhibition
1 | COc1ccccc1OCCn1cc(/C=N/NC(=O)c2ccncc2)c2ccccc21 | inconclusive: 25.1 µM [inhibitor, single point] | –
2 | CC(=O)Nc1cccc(NC(=O)Cc2csc(COc3cccc(C)c3)n2)c1 | – | inactive: 5.38% [at 46.1 µM]
3 | O=C(COc1ccc2c(C(F)(F)F)cc(=O)oc2c1)Nc1ccc2c(c1)OCCO2 | inconclusive: 29.1 µM [activator, partial curve, poor fit] | –
4 | CC1CCOC(c2coc3ccccc3c2=O)O1 (stereo not drawn) | inconclusive: 9.2 µM [activator, partial curve, poor fit] | –
5 | Cc1ccc(-c2nnn(CCC(=O)N3CCCCC3C)n2)cc1 (stereo not drawn) | – | inactive: 13.3%
6 | CCOC(=O)c1ccc(NCn2c(=O)oc3ccccc32)cc1 | – | inactive: 20%
7 | CCOc1ccc(C2=C(C(=O)CC)Sc3nncn3N2C(=O)CC)cc1 | inconclusive: 11.2 µM [inhibitor, partial curve, poor fit] | –
8 | CC(=O)N1CCc2cc(S(=O)(=O)NC(CC(C)C)C(=O)Nc3cc(C(=O)O)ccc3C)ccc21 (stereo not drawn) | – | inactive: 3.33%
9 | COc1ccc(/C(N)=N/OC(=O)N2CCOCC2)cc1 | inconclusive: 20 µM [inhibitor, single point] | –
10 | CCCCn1c(N)c(N(CCC(C)C)C(=O)c2ccc3c(c2)OCCO3)c(=O)[nH]c1=O | inconclusive: 0.1 µM [activator, full curve, poor fit] | –
11 | Cc1ccc(S(=O)(=O)N2CCCCC2CCNC(=O)C(=O)NCCc2ccco2)cc1 (stereo not drawn) | inconclusive: 3.16 µM [inhibitor, full curve, poor fit] | –
12 | C/C(N)=C(/C#N)C(=O)CSc1nc2ccccc2c(=O)n1CCCO | inconclusive: 10 µM [inhibitor, partial curve, poor fit] | –
13 | CCc1ccccc1N1C(=O)N(CC(=O)c2ccc(Cl)cc2)c2ccccc2S1(=O)=O | inconclusive: 35.5 µM [inhibitor, single point] | –
14 | COC(=O)c1ccc(Cl)cc1N(Cc1c(F)cccc1Cl)S(C)(=O)=O | inconclusive: 10 µM [inhibitor, partial curve, poor fit] | –
15 | O=C(Nc1ccc(N2CCCCCC2)cc1)c1cccc(S(=O)(=O)N2CCOCC2)c1 | inconclusive: 20 µM [inhibitor, partial curve, poor fit] | –
16 | O=c1[nH]c2cccc(Cl)c2n(CCNc2ncc(C(F)(F)F)cc2Cl)c1=O | inconclusive: 35.5 µM [inhibitor, single point] | –
17 | O=C(Nc1ccc(C(=O)N2CCCC2)cc1)c1ccccc1[N+](=O)[O-] | inconclusive: 3.98 µM [inhibitor, partial curve, poor fit] | –
18 | Cc1ccc(NC(=O)C(=O)NCCCN2CCCC2=O)cc1 | inconclusive: 10 µM [inhibitor, partial curve, poor fit] | –
19 | O=C(N/N=C\c1ccc([N+](=O)[O-])o1)C1COc2ccccc2O1 (stereo not drawn) | inconclusive: 35.5 µM [inhibitor, single point] | –
20 | COc1ccc(OCC(=O)Nc2ccccc2N2CCCCC2)cc1 | inconclusive: 6.31 µM [inhibitor, partial curve] | –
21 | Cc1ccccc1Cc1c(C)nc2c(C(=O)N3CCN(Cc4ccc5c(c4)OCO5)CC3)cnn2c1C | – | inactive: -5.03%
22 | COc1ccc(CNC(=O)CN=C2NC(=O)C(c3ccccc3)(c3ccccc3)N2)cc1 | – | inactive: 6.26%
23 | CC(C)N1CCN(Cc2cccc([N+](=O)[O-])c2)CC1 | inconclusive: 7.08 µM [inhibitor, partial curve, poor fit] | –

Row | Compound | Potency | activity change, negative = inhibition
24 | COc1ccc(CCNC(=O)Cn2nnc(-c3ccc(OC)c(OC)c3)n2)cc1OC | inconclusive: 0.708 µM [inhibitor, single point] | –
25 | CCCCOC(=O)Cn1nnc2sc(-c3ccccc3)cc2c1=O | – | inactive: 13.8% [at 46.1 µM]
26 | Cn1c(CSCc2ccc(F)cc2)nnc1SCC(=O)N1CCN(c2ccccc2)CC1 | inconclusive: 15.8 µM [inhibitor, single point] | –
27 | CCN1CCN(S(=O)(=O)c2ccc(Cl)c(C(=O)N(C)CCOc3ccc(Cl)cc3)c2)CC1 | inconclusive: 35.5 µM [inhibitor, single point] | –
28 | O=C(CCCCn1c(=O)c2ccccc2n(CC(=O)Nc2ccc(F)cc2F)c1=O)NCc1ccccc1Cl | – | inactive: -6.16% [at 46.1 µM]
29 | COc1cccc(Cn2nc(C(=O)O)c3ccccc3c2=O)c1 | inconclusive: 12.6 µM [inhibitor, partial curve, poor fit] | –
30 | O=C1NC(=S)SC1=Cc1ccc(N(CCCl)CCCl)cc1 | inconclusive: 11.2 µM [inhibitor, partial curve, poor fit] | –
31 | O=C(O)c1ccc(N2C(=O)c3cccc4c(C(=O)O)ccc(c34)C2=O)cc1 | inconclusive: 29.1 µM [activator, single point] | –
32 | COc1ccc(Nc2cc(C(=O)NCc3cccs3)c3ccccc3n2)cc1 | – | inactive: -3.51% [at 46.1 µM]
33 | CCOc1ccc(-c2n[nH]c(C)c2-c2ccccc2OC)c(O)c1 | inconclusive: 15.8 µM [inhibitor, single point] | –
34 | COCCNC(=S)NN=C1CCCCC1 | inconclusive: 11.2 µM [inhibitor, single point] | –
35 | COc1ccc(CN(C)CC(O)COc2ccc(C(=O)c3ccccc3)cc2)c(OC)c1OC (stereo not drawn) | inconclusive: 7.08 µM [inhibitor, partial curve, poor fit] | –
36 | Cc1ccc2nc(NC(=S)NC(=O)c3ccco3)sc2c1 | inconclusive: 29.1 µM [inhibitor, single point] | –
37 | O=C(NCCC1CCCCN1S(=O)(=O)c1ccc(Cl)cc1)C(=O)NCc1ccco1 (stereo not drawn) | inconclusive: 35.5 µM [inhibitor, single point] | –
38 | CC(=O)Nc1ccc(S(=O)(=O)NCC2CCC(C(=O)N3CCCCCC3)CC2)cc1 (stereo not drawn) | active: 3.55 µM | –
39 | O=c1oc2ccccc2cc1-c1csc(Cc2nc(-c3ccc(Cl)cc3)cs2)n1 | inconclusive: 3.16 µM [inhibitor, full curve] | –
40 | O=C(COC(=O)c1ccc2ccccc2c1O)Nc1ccccc1 | inconclusive: 10 µM [activator, partial curve, poor fit] | –
41 | Cc1ccc(OCC(=O)NNC(=S)NC(=O)C(C)(C)C)c(Br)c1 | inconclusive: 35.5 µM [inhibitor, single point] | –
42 | CC(C)(C)c1ccccc1NC(=O)CN1C(=O)NC(Cc2ccccc2)C1=O (stereo not drawn) | – | inactive: 1.31%
43 | Nc1cc(C(=O)OCC(=O)NNC(=O)c2cccs2)ccc1Cl | inconclusive: 0.501 µM [inhibitor, single point] | –
44 | COc1ccccc1CNC(=O)COC(=O)CSc1ccc(F)cc1 | – | inactive: -28.3%
45 | Cc1nn(-c2ccccc2)c(C)c1/C=N/NC(=O)CSc1nc2ccccc2c(=O)n1-c1ccc(Br)cc1 | – | inactive: -24.9%
46 | O=C(NCc1ccc(Cl)cc1)c1ccc2oc(=O)n(Cc3ccccc3)c2c1 | inconclusive: 28.2 µM [inhibitor, single point] | –

Row | Compound | Potency | activity change, negative = inhibition
47 | Cc1nnc(-c2cccc(Br)c2)c2cn(-c3cccc(Br)c3)nc12 | inconclusive: 35.5 µM [inhibitor, single point] | –
48 | COC(=O)c1ccc(CN2CCCC(C(=O)Nc3cccc(-n4cnnn4)c3)C2)cc1 (stereo not drawn) | inconclusive: 35.5 µM [inhibitor, single point] | –
49 | Cc1cccn2c(=O)c3cc(C(=O)NC4CCCC4)c(=N)n(C4CCCC4)c3nc12 | inconclusive: 35.5 µM [inhibitor, partial curve, poor fit] | –
50 | Cc1nc(-c2cccc(NC(=O)COc3ccc(Cl)cc3)c2)cs1 | inconclusive: 35.5 µM [inhibitor, single point] | –
51 | O=C(NCC1CCCO1)c1ccc(CSCc2cccc(F)c2)o1 (stereo not drawn) | inconclusive: 35.5 µM [inhibitor, partial curve, poor fit] | –
52 | O=[N+]([O-])c1ccc(N2CCNCC2)c(Cl)c1 | – | inactive: 12.6%
53 | O=C(NC1=NCCS1)c1ccncc1 | – | inactive: 1.96%
54 | O=C(COc1ccc(Cl)cc1)Nc1ccc2c(c1)CCC2 | – | inactive: 27.7%
55 | CC(C)N(c1ccccc1)c1ccc(NC(=O)C2CCCO2)cc1 (stereo not drawn) | inconclusive: 6.51 µM [inhibitor, partial curve, poor fit] | –
56 | Cc1ccc(N2Cc3ccccc3C2=N)cc1[N+](=O)[O-] | inconclusive: 5.01 µM [inhibitor, single point] | –
57 | COC(=O)c1c(NC(=O)C(=O)NCCCN2CCOCC2)sc2c1CC(C)(C)OC2 | inconclusive: 11.2 µM [activator, partial curve] | –
58 | Cc1ccc(C)c(OCCC(=O)Nc2cccc(S(=O)(=O)N3CCCCC3)c2)c1 | inconclusive: 17.8 µM [inhibitor, partial curve, poor fit] | –
59 | O=C(CCn1c(=O)[nH]c2ccccc2c1=O)N1CCN(c2cccc(C(F)(F)F)c2)CC1 | – | inactive: -3.67%
60 | [O-]/C(=C(\C(=S)Nc1cccc2ccccc12)[n+]1ccccc1)c1ccc(Cl)s1 | – | inactive: 6.46%
61 | O=C1/C(=C/c2cccs2)COc2ccccc21 | – | inactive: 15.4%
62 | COc1ccc(NC(=O)c2cccc(S(=O)(=O)N3CCCCC3)c2)c(OC)c1 | – | inactive: 0.42% [at 46.1 µM]
63 | COc1ccc(-c2csc(NC(=O)c3ccc(S(=O)(=O)N4CCc5ccccc5C4)cc3)n2)c(OC)c1 | – | inactive: -1.68%
64 | Cc1ccc(SCCCCN2CCOCC2)cc1 | – | inactive: 11.8% [at 46.1 µM]
65 | O=C(/C=C/c1ccccc1)c1c(O)n(CCc2ccccc2)c(=O)[nH]c1=O | – | inactive: -19.8%
66 | O=C(c1ccc(Br)cc1)C1CCc2occc2C1=O (stereo not drawn) | inconclusive: 29.1 µM [activator, single point] | –
67 | O=C(CCCSc1ccccc1)Nc1nc(-c2ccccn2)cs1 | inconclusive: 15.8 µM [inhibitor, single point] | –
68 | COc1cc(-c2nccc3cc4c(cc23)OCO4)cc(OC)c1OC | inconclusive: 1.26 µM [inhibitor, full curve, poor fit] | –

Copied from the list:
In activity change, negative = inhibition, COc1ccc(-c2csc(NC(=O)c3ccc(S(=O)(=O)N4CCc5ccccc5C4)cc3)n2)c(OC)c1 is listed with inactive: -1.68%
In activity change, negative = inhibition, COc1ccc(NC(=O)c2cccc(S(=O)(=O)N3CCCCC3)c2)c(OC)c1 is listed with inactive: 0.42% [at 46.1 µM]
In Potency, COc1cc(-c2nccc3cc4c(cc23)OCO4)cc(OC)c1OC is listed with inconclusive: 1.26 µM [inhibitor, full curve, poor fit]
